## Library screen at single concentrations

The chains behind the UniProt entries cited, without tags or fusion partners. Residues count along the entry.
UniProt P9WFT3, whole entry: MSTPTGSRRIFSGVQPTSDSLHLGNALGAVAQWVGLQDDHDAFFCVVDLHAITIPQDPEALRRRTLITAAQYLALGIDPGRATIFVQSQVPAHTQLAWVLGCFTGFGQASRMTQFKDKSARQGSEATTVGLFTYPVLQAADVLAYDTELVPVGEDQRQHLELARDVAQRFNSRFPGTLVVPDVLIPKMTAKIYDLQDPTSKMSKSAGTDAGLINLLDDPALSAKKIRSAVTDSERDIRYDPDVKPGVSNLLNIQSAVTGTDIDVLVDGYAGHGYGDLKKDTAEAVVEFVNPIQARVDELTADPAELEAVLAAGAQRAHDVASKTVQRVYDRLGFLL
UniProt A4I591, 1-473: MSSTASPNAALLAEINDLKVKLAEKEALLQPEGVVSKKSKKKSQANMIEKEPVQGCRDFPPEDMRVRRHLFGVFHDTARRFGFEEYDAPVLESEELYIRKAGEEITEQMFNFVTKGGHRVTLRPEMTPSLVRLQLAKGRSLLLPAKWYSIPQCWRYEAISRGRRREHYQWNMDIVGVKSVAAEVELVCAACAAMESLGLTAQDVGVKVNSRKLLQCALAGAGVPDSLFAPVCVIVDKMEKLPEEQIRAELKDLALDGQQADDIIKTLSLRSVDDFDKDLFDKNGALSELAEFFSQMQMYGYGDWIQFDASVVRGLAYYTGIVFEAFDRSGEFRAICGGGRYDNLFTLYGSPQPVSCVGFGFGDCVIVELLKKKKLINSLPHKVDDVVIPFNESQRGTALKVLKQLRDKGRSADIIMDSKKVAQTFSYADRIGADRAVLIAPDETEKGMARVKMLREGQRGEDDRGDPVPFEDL

Measurements from “University of Dundee, Small-Polar-MMV Screening Library” (2021), ChEMBL document CHEMBL3988442.

Results are given as percent effect.
The record does not define 0% and 100%; most values in the screen are far below 50% and negative numbers occur (in some assays of this library far below -100).
This is an unselected part of the compounds tested.

A: 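Tryptophan-tRNA ligase, Mycobacterium tuberculosis (UniProt P9WFT3). Enzyme assay of tryptophanyl-tRNA synthetase; the read-out is not stated. Concentration: 10 µM. Direction is not recorded; retested compounds ran higher, which suggests that high means inhibition. Of about 65,000 compounds tested this way, about 64 (0.098%) reached 50% or more in at least one test.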
B: 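Enzyme assay of histidyl-tRNA synthetase; the read-out is not stated. Target: Histidine-tRNA ligase, Leishmania infantum (UniProt A4I591). Compounds at 30 µM. Higher reads as stronger inhibition (inferred: compounds with an IC50 in retests scored well above the rest). The assay is labelled LdHisRS but filed under L. infantum. Size under these conditions: about 69,000 compounds, about 410 of them at 50% or above in at least one test.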

- CCn1ncc2c1C(COC)N(C(=O)c1ccsc1)CC2 (configuration not stated) | B: 13.64%
- CN(CC1CCCC1)C(=O)c1cn(C)nc1-c1cccnc1 | A: 1.332%; B: 0%
- CC(C)N(C)S(=O)(=O)N(C)Cc1ccc2c(c1)OCCO2 | A: -1.595%; B: 15.38%
- CC(C)N(CCCNC(=O)C1CCCN(C(N)=O)C1)S(C)(=O)=O (configuration not stated) | A: 3.047%; B: 24.05%
- O=C(NCc1nnc2n1CCCCC2)N1CCc2sccc2C1 | A: 2.632%; B: 24.32%
- CC(C)[C@H](NS(C)(=O)=O)C(=O)NCc1cc(-c2cccc(Cl)c2)nn1C | B: 2.857%
- CC(C)n1cc(N2CC(C(=O)N3CCN(C)CC3)CC2=O)cn1 (configuration not stated) | A: -1.223%; B: 10.34%
- CC(C(N)=O)n1nc(-c2cccs2)cc(N)c1=O (configuration not stated) | A: -3.453%; B: 7.143%
- Cc1cnc(N2CCN(C)CC2)nc1-c1ccnn1C | A: 0.4112%; B: 7.843%
- Cc1cn2nc(N3CCN(Cc4c(C)noc4C)CC3)sc2n1 | A: 3.195%; B: 2.609%
- Cc1cc(C)n(CC2CCCN2CCCS(=O)(=O)N(C)C)n1 (configuration not stated) | A: -1.935%; B: 23.08%
- COCC(C)NC(=O)NCCCc1cc(N)n(-c2ccccc2)n1 (configuration not stated) | A: 0.1285%; B: 7.407%
- Cc1nn(C)cc1-c1ccnc(NCCN)n1 | A: -1.215%; B: 19.44%
- O=C(O)c1ccccc1C1CCN(C2CCN(c3ccccc3)CC2)C1 (configuration not stated) | A: -3.271%; B: 22.67%
- CN(c1ncnc2sccc12)C1CCCN(c2cccnn2)C1 (configuration not stated) | A: -1.331%; B: 19.35%
- CC(SCCS(C)(=O)=O)c1nc(Cc2ccccc2)no1 (configuration not stated) | A: 0.8258%; B: 11.11%
- COc1ccc(CN(Cc2cc(C)no2)C2CC2)cc1 | A: 0.5735%; B: 5.31%
- Cc1cnc(N2C[C@H]3C[C@H](C(=O)N(C)C)[C@@H](C2)O3)nc1 | A: 0.3148%; B: 3.774%
- O=C1CCCCCN1Cc1nc(C2(c3ccc(F)cc3)CCOC2)no1 (configuration not stated) | A: 0%; B: 0%
- COc1ccc(-c2nc(CN3CCc4c(ncn4C)C3)cs2)cc1 | A: -4.826%; B: 57.45%
- COc1ccnc(N2Cc3cnc(C(C)(C)C)nc3C2)n1 | A: -9.188%; B: 13.33%
- Cc1cccc(-c2cc(C(=O)O)sn2)c1 | A: -0.9238%; B: 9.89%
- O=C(NCC(O)COc1ccc(C(F)(F)F)cc1)Nc1nncs1 (configuration not stated) | A: 3.732%; B: 18.48%
- CC(C)c1ncc2c(n1)CN(c1ncnc3[nH]ccc13)CC2 | A: 3.312%; B: 21.43%
- O=C(c1ccc(Cl)s1)N1CCC2(COc3ncccc3S(=O)(=O)N2)C1 (configuration not stated) | A: 0.9507%; B: 13.79%
- Cc1cc(C)c(CNC(=O)N2CCC(N3CCNC3=O)CC2)c(=O)[nH]1 | A: 1.331%; B: 14.52%
- Cc1ccc(F)c(C(=O)NC2CCC(N3C(=O)CCC3=O)CC2)c1 (configuration not stated) | A: 1.933%; B: 16.44%
- CN(Cc1ccco1)[C@@H]1CN(Cc2cnn(C)c2)[C@@H]2CCCO[C@H]12 | A: -3.867%; B: 21%
- CCc1nccn1CCCNc1nccc(-c2c(C)nn(C)c2C)n1 | A: -3.866%; B: 0%
- CC(C)N1[C@H](CN(C)C)C[C@@H]2CN(c3ncc(F)cn3)CC[C@@H]21 | A: 9.661%; B: -2.564%
- COc1ccc(C(=O)N(C)Cc2cc(C)on2)c(F)c1 | A: 0.1649%; B: 9.434%
- Cc1ccc(CNC2CCCN(Cc3noc(C4CC4)n3)C2)s1 (configuration not stated) | A: -2.774%; B: 10.91%
- CCN1CCN(c2ccc(C(=O)NCc3cc(C)no3)cc2F)CC1 | A: -3.51%; B: 13.49%
- CN(C)Cc1cncc2c1CCN(Cc1cnn(C)c1)C2 | A: 1.526%; B: -1.37%
- Cc1ccccc1CNCc1cc(Cl)ccc1O | A: -0.5833%; B: 8.602%
- O=C1N(C2CCCCC2)C[C@H]2CN(C3CCC3)CCN12 | A: 8.009%; B: 21.62%
- CN(Cc1cnn(C)c1)S(=O)(=O)N1CCCCC1 | A: -1.5%; B: 3.125%
- COCc1nn(C(C)C)c2c1CCN(Cc1ccoc1)C2 | A: -2.402%; B: 20.97%
- Cn1ccc(CN2CCC(Cc3ccccc3)CC2)cc1=O | A: 4.373%; B: 11.97%